The list does not hold the whole screen: it is rich in T/C values a quarter to a half above the control, in often repeated tests (any T/C) and in doses without a T/C. Further doses and runs are listed elsewhere. T/C gives the treated animals as a percentage of the vehicle group. Some doses have a count of surviving animals in place of a T/C: the source holds a T/C of zero for them, seemingly a mark for toxic or unscored doses. Some survivor counts are full or nearly so, which does not show that the dose was tolerated: the source hardly ever lists a survival T/C far under the control, and the zero likely stands for such cases as well. Survivors were counted at the toxicity check, usually on the fifth day, unless a day is given; later deaths do not show. Schedules are NCI's codes, taken here to give the interval after Q, in days (D) or hours (H), and the number of doses after X. Some doses were run more than once; the values are given in rising order. Where survival is the endpoint, the PubChem record calls one and a half times the control and up active, and a quarter to a half above the control has no call in these data; cut-offs in other NCI protocols can differ. Some T/C values carry the count of animals alive at the toxicity check (mostly the fifth day); where none is given, no animal had died by that day.
Test system: BDF1 mice, P388 leukemia ip, median survival T/C
Assay: NCI In Vivo Anticancer Drug Screen. Data for tumor model P388 Leukemia (intraperitoneal) in B6D2F1 (BDF1) mice
Conditions: higher T/C = longer survival
Outline: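 Vehicle-dosed animals serve as the reference; survival of compound-dosed, tumour-implanted mice is divided by it.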

[1] = T/C endpoint: median survival time, dose: 200.0 mg/kg/injection, schedule: Q01DX009 (ip), vehicle: saline with Tween-80
[2] = T/C endpoint: median survival time, dose: 400.0 mg/kg/injection, schedule: Q01DX009 (ip), vehicle: saline with Tween-80
[3] = T/C endpoint: median survival time, dose: 400.0 mg/kg/injection, schedule: Q04DX003 (ip), vehicle: saline
[4] = T/C endpoint: median survival time, dose: 100.0 mg/kg/injection, schedule: Q01DX009 (ip), vehicle: Klucel (hydroxypropylcellulose) (HPC)
[5] = T/C endpoint: median survival time, dose: 200.0 mg/kg/injection, schedule: Q01DX009 (ip), vehicle: Klucel (hydroxypropylcellulose) (HPC)

For `CCCCCC(CN(C)C)C(=O)/C=C/c1cccc(O)c1` (stereo unspecified), the survivor count [1] was 2 of 6.

`Nc1ccc(S(=O)(=O)Nc2ccc([N+](=O)[O-])cc2)cc1` was tested, and the survivor count (T/C endpoint: median survival time, dose: 50.0 mg/kg/injection, schedule: Q01DX009 (ip), vehicle: saline with Tween-80) was 6 of 6, the survivor count [1] was 5 of 6 and the survivor count [2] was 3 of 6.

With `CN(C)/N=N/c1nc(Cc2ccccc2)[nH]c1C(N)=O` the T/C (T/C endpoint: median survival time, dose: 100.0 mg/kg/injection, schedule: Q01DX009 (ip), vehicle: saline with Tween-80) was 142 % of control, the T/C [1] was 146 % of control and the T/C [2] was 145 % of control.

For `CCCCCC(=O)c1ccc(OCCCN2CCN(C(=O)OCC)CC2)cc1`, the survivor count [2] was 3 of 6.

In the case of `COc1ccc(OC)c(/C=C/C(=O)NCC(O)CO)c1` (stereo unspecified), the survivor count [1] was 5 of 6 and 6 of 6 and the survivor count [2] was 6 of 6.

`CCOC(=O)c1nc2nc(Cl)c(Cl)nc2[nH]1` was tested, and the survivor count (T/C endpoint: median survival time, dose: 8.0 mg/kg/injection, schedule: Q01DX009 (ip), vehicle: saline) was 6 of 6, the survivor count (T/C endpoint: median survival time, dose: 16.0 mg/kg/injection, schedule: Q01DX009 (ip), vehicle: saline) was 6 of 6 and the survivor count [3] was 2 of 6.

In the case of `CN(C)CCCNC1=CC(=O)c2ccccc2C1=O`, the survivor count (T/C endpoint: median survival time, dose: 200.0 mg/kg/injection, schedule: Q01DX009 (ip), vehicle: water) was 3 of 6.

For `CC1(C)C2CCC1(C)C1OC(=O)NN=C21` (stereo unspecified), the survivor count (T/C endpoint: median survival time, dose: 100.0 mg/kg/injection, schedule: Q01DX001 (ip), vehicle: saline with Tween-80) was 1 of 6, the survivor count (T/C endpoint: median survival time, dose: 200.0 mg/kg/injection, schedule: Q01DX001 (ip), vehicle: saline with Tween-80) was 0 of 6 and the survivor count (T/C endpoint: median survival time, dose: 400.0 mg/kg/injection, schedule: Q01DX001 (ip), vehicle: saline with Tween-80) was 0 of 6.

`COc1cc(C[C@H]2c3cc(OC)c(OC)cc3CCN2C)c(Oc2cc3c(cc2OC)-c2c(OC)c(OC)cc4c2[C@H](C3)N(C)CC4)cc1OC` was tested, and the T/C (T/C endpoint: median survival time, dose: 25.0 mg/kg/injection, schedule: Q01DX010 (ip), vehicle: clinical formulation) was 127 % of control, the T/C (T/C endpoint: median survival time, dose: 25.0 mg/kg/injection, schedule: Q01DX010 (ip), vehicle: other) was 130 % of control and the T/C (T/C endpoint: median survival time, dose: 100.0 mg/kg/injection, schedule: Q01DX010 (ip), vehicle: clinical formulation) was 127 % of control [8 of 10 alive]. For the same compound, the survivor count (T/C endpoint: median survival time, dose: 144.0 mg/kg/injection, schedule: Q04DX003 (ip), vehicle: other) was 6 of 10, the survivor count (T/C endpoint: median survival time, dose: 192.0 mg/kg/injection, schedule: Q01DX005 (ip), vehicle: other) was 0 of 10 and the survivor count (T/C endpoint: median survival time, dose: 192.0 mg/kg/injection, schedule: Q01DX010 (ip), vehicle: other) was 2 of 10. For the same compound, the survivor count (T/C endpoint: median survival time, dose: 200.0 mg/kg/injection, schedule: Q01DX010 (ip), vehicle: acetone) was 10 of 10, the survivor count (T/C endpoint: median survival time, dose: 200.0 mg/kg/injection, schedule: Q01DX010 (ip), vehicle: clinical formulation) was 0 of 10 and the survivor count (T/C endpoint: median survival time, dose: 288.0 mg/kg/injection, schedule: Q04DX003 (ip), vehicle: other) was 1 of 10. For the same compound, the survivor count (T/C endpoint: median survival time, dose: 400.0 mg/kg/injection, schedule: Q01DX010 (ip), vehicle: acetone) was 0 of 10, the survivor count (T/C endpoint: median survival time, dose: 400.0 mg/kg/injection, schedule: Q01DX010 (ip), vehicle: clinical formulation) was 0 of 10 and the survivor count (T/C endpoint: median survival time, dose: 400.0 mg/kg/injection, schedule: Q01DX010 (ip), vehicle: other) was 0 of 10. The survivor count (T/C endpoint: median survival time, dose: 432.0 mg/kg/injection, schedule: Q08DX002 (ip), vehicle: other) was 0 of 10, the survivor count (T/C endpoint: median survival time, dose: 576.0 mg/kg/injection, schedule: Q04DX003 (ip), vehicle: other) was 0 of 10 and the survivor count (T/C endpoint: median survival time, dose: 864.0 mg/kg/injection, schedule: Q08DX002 (ip), vehicle: other) was 0 of 10.

With `COc1ccc(CSc2ncnc3nc[nH]c23)cc1` the survivor count [1] was 5 of 6 and the survivor count [2] was 5 of 6.

In the case of `CC[C@H](c1ccc(O)cc1)[C@@H](CC)c1ccc(O)cc1`, the T/C (T/C endpoint: median survival time, dose: 200.0 mg/kg/injection, schedule: Q04DX003 (ip), vehicle: other) was 125 % of control.

For `OC(Cc1cc(CC(O)(C(F)(F)F)C(F)(F)F)ncn1)(C(F)(F)F)C(F)(F)F`, the survivor count [2] was 6 of 6.

`NC(=S)N/N=C/c1ccc(OC(=O)COc2ccccc2)cn1` was tested, and the T/C (T/C endpoint: median survival time, dose: 3.13 mg/kg/injection, schedule: Q01DX009 (ip), vehicle: saline with Tween-80) was 144 % of control, the T/C (T/C endpoint: median survival time, dose: 6.25 mg/kg/injection, schedule: Q01DX009 (ip), vehicle: saline with Tween-80) was 149 % of control and the survivor count [1] was 6 of 6.

With `CN(C)Cc1ccc(C(C)(C)C)cc1` the survivor count (T/C endpoint: mean survival time, dose: 50.0 mg/kg/injection, schedule: Q01DX009 (ip), vehicle: water) was 5 of 6, the survivor count (T/C endpoint: median survival time, dose: 200.0 mg/kg/injection, schedule: Q04DX003 (ip), vehicle: water) was 0 of 6 and the survivor count (T/C endpoint: median survival time, dose: 400.0 mg/kg/injection, schedule: Q04DX003 (ip), vehicle: water) was 0 of 6.

With `COc1ccc2cc1Oc1ccc(cc1)CC1=NCCc3cc(OC)c(OC)c(c31)Oc1cc3c(cc1OC)CCN(C)C3C2` (stereo unspecified) the survivor count (T/C endpoint: median survival time, dose: 150.0 mg/kg/injection, schedule: Q01DX010 (ip), vehicle: carboxymethylcellulose (CMC)) was 5 of 6.

For `Cc1ccc(S(=O)(=O)NCCCCCC(=O)OCc2ccccc2)cc1`, the survivor count (T/C endpoint: median survival time, dose: 400.0 mg/kg/injection, schedule: Q01DX009 (ip), vehicle: saline) was 1 of 6.

`C[C@]1(O)CC[C@H]2[C@@H]3CCC4=CC(=O)CC[C@]4(C)[C@@]3(F)C(=O)C[C@@]21C` was tested, and the survivor count [4] was 5 of 6, the survivor count [5] was 6 of 6 and the survivor count (T/C endpoint: median survival time, dose: 400.0 mg/kg/injection, schedule: Q01DX009 (ip), vehicle: Klucel (hydroxypropylcellulose) (HPC)) was 5 of 6.

With `CCCCCCCCCCCCCCCCCCOc1ccccn1` the survivor count (T/C endpoint: median survival time, dose: 12.5 mg/kg/injection, schedule: Q01DX009 (ip), vehicle: Klucel (hydroxypropylcellulose) (HPC)) was 6 of 6, the survivor count (T/C endpoint: median survival time, dose: 25.0 mg/kg/injection, schedule: Q01DX009 (ip), vehicle: Klucel (hydroxypropylcellulose) (HPC)) was 6 of 6 and the survivor count (T/C endpoint: median survival time, dose: 50.0 mg/kg/injection, schedule: Q01DX009 (ip), vehicle: Klucel (hydroxypropylcellulose) (HPC)) was 6 of 6. For the same compound, the survivor count [4] was 6 of 6 and the survivor count [5] was 6 of 6.

`CSc1nc(Cl)cc(N2CC2)n1` was tested, and the survivor count (T/C endpoint: median survival time, dose: 1.56 mg/kg/injection, schedule: Q01DX009 (ip), vehicle: saline) was 0 of 6, the survivor count (T/C endpoint: median survival time, dose: 5.6 mg/kg/injection, schedule: Q04DX003 (ip), vehicle: saline) was 0 of 6 and the survivor count (T/C endpoint: median survival time, dose: 6.25 mg/kg/injection, schedule: Q04DX003 (ip), vehicle: saline) was 0 of 6. The survivor count (T/C endpoint: median survival time, dose: 8.4 mg/kg/injection, schedule: Q04DX003 (ip), vehicle: saline) was 0 of 6, the survivor count (T/C endpoint: median survival time, dose: 12.5 mg/kg/injection, schedule: Q04DX003 (ip), vehicle: saline) was 3 of 6 and the survivor count (T/C endpoint: median survival time, dose: 25.0 mg/kg/injection, schedule: Q04DX003 (ip), vehicle: saline) was 1 of 6. For the same compound, the survivor count (T/C endpoint: median survival time, dose: 100.0 mg/kg/injection, schedule: Q04DX003 (ip), vehicle: saline) was 0 of 6, the survivor count (T/C endpoint: median survival time, dose: 200.0 mg/kg/injection, schedule: Q04DX003 (ip), vehicle: saline) was 0 of 6 and the survivor count [3] was 0 of 6.

From PubChem BioAssay AID328 (DTP/NCI, 2004)
